Library screen at single concentrations

Sequences of proteins named here, by UniProt entry; tags and fusion partners are left off. Residues count along the entry.
UniProt Q8IDJ8, 1-583: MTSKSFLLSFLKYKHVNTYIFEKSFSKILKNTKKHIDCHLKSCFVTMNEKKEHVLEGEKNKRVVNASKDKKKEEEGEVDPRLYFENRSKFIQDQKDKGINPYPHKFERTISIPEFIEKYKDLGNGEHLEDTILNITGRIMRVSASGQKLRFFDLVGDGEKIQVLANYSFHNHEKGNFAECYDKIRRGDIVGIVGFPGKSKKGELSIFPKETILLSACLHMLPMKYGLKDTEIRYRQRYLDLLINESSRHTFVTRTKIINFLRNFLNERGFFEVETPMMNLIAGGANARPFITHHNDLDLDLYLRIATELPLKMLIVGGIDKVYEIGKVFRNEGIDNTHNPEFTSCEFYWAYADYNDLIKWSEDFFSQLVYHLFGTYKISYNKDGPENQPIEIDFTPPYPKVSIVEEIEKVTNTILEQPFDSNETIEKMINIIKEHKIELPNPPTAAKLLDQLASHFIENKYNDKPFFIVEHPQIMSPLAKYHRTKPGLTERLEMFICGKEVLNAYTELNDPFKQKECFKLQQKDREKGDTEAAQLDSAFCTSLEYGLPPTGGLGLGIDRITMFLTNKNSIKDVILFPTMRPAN
UniProt P9WPC5, whole entry: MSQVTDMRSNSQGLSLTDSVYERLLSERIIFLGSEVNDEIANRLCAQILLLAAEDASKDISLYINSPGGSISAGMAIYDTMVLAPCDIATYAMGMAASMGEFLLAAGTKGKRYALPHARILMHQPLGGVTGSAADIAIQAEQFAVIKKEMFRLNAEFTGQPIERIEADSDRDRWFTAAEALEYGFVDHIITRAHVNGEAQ
UniProt P9WPC3, whole entry partner: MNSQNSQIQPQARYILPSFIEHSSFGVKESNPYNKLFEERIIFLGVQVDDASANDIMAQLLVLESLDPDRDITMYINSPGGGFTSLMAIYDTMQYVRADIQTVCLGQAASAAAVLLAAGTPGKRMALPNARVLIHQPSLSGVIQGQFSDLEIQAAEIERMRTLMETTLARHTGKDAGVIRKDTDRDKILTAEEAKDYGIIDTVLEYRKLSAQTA

Data taken from ChEMBL document CHEMBL3988442, “University of Dundee, Small-Polar-MMV Screening Library” (2021).

PfKRS1: 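Lysine-tRNA ligase, Plasmodium falciparum 3D7 (UniProt Q8IDJ8). Enzyme assay of the cytosolic lysyl-tRNA synthetase in 384-well plates, read by luminescence. Concentration: 30 µM. Higher reads as stronger inhibition, judged from the few compounds that gave an IC50. About 69,000 compounds were tested under these conditions; 0.071% (about 49) showed 50% or more at least once.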
ClpP1P2: 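ClpP1P2, Mycobacterium tuberculosis (UniProt P9WPC5 and UniProt P9WPC3). Protease assay of ClpP1P2, read by the AMC dye that it sets free. Tested at 50 µM. Direction is inferred from only a few compounds that gave an IC50; most scored high, so higher reads as stronger inhibition. Most other retested compounds had strongly negative values. Size under these conditions: about 69,000 compounds, about 10 of them at 50% or above in at least one test.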

Values are the deposited “Percent Effect”, in %.
The controls that fix the scale are not given in the record; negative values are as filed.
This is an unselected part of the compounds tested.

{"structure": "COC(=O)NCC(=O)NC1CC(C)(C)Cc2oc(C)cc21", "stereo": "stereo not drawn", "PfKRS1": 4.182, "ClpP1P2": 9.13}
{"structure": "CCOCc1nn(CC2CC2)c2c1CN(Cc1cccs1)CC2", "PfKRS1": 4.954, "ClpP1P2": -18.24}
{"structure": "CCCc1nnc(N(C)CC2CCN(CC(C)C)C2)o1", "stereo": "stereo not drawn", "PfKRS1": 0.9987, "ClpP1P2": -2.784}
{"structure": "COc1ccc(C2=Nn3c(CN)nnc3-c3ccccc3C2)cc1", "PfKRS1": 7.742, "ClpP1P2": -7.592}
{"structure": "COc1cc(F)ccc1-c1ncccc1NC(=O)C(C)C", "PfKRS1": 2.169, "ClpP1P2": -10.22}
{"structure": "CN(C)C(=O)CNC(=O)c1ccn(-c2ccc3ccccn23)n1", "PfKRS1": 4.723, "ClpP1P2": 7.049}
{"structure": "Cc1cnc(N2CCC3(CC2)CC3CNC(=O)N(C)C)nc1", "stereo": "stereo not drawn", "PfKRS1": 3.285, "ClpP1P2": 6.109}
{"structure": "O=C(c1ccccc1)N1CCOC2(CCN(Cc3cccs3)CC2)C1", "PfKRS1": -4.024, "ClpP1P2": -3.827}
{"structure": "O=C(Nc1cc(-c2ccncc2)no1)C1CCCCC1", "PfKRS1": 8.267, "ClpP1P2": 6.633}
{"structure": "Fc1ccc(-c2nnc(CN3CCCC(Cn4cncn4)C3)o2)cc1", "stereo": "stereo not drawn", "PfKRS1": 2.075, "ClpP1P2": -15.06}
{"structure": "CC(=O)N(Cc1ncc(C)o1)C1CCN(CCCc2cnn(C)c2)C1", "stereo": "stereo not drawn", "PfKRS1": 10.59, "ClpP1P2": 6.705}
{"structure": "COC(=O)c1sc(NCc2ccc(N3CCC(O)CC3)c(F)c2)nc1Cl", "PfKRS1": 0.6123, "ClpP1P2": 6.172}
{"structure": "Cc1cncc(C2CCCN(C(=O)c3cnco3)C2)n1", "stereo": "stereo not drawn", "PfKRS1": 5.305, "ClpP1P2": -7.408}
{"structure": "Cc1ccc(-c2ccnc(NC(C)c3n[nH]c(=O)[nH]3)n2)c(C)n1", "stereo": "stereo not drawn", "PfKRS1": -0.9056, "ClpP1P2": 3.845}
{"structure": "CCC1=N[C@@]2(CC[C@@H]3CN(Cc4cccc(Cl)c4)C[C@@H]32)C(=O)N1C", "PfKRS1": 1.317, "ClpP1P2": 14.5}
{"structure": "CNC(=O)[C@@]12CCO[C@@H]1CCN(S(=O)(=O)c1cccnc1)C2", "PfKRS1": 1.525, "ClpP1P2": 3.782}
{"structure": "CCn1c(C)nnc1SCCNc1nc(C)ncc1S(C)(=O)=O", "PfKRS1": 5.462, "ClpP1P2": -16.81}
{"structure": "CC(=O)N1CCC12CCN(Cc1ccco1)CC2", "PfKRS1": -4.507, "ClpP1P2": -0.9683}
{"structure": "CC(=O)N1CCCN(Cc2csc(C)n2)c2ccccc21", "PfKRS1": 1.858, "ClpP1P2": 2.767}
{"structure": "CN1CCN(C(=O)c2cc3sccc3n2Cc2ccccc2F)CC1", "PfKRS1": 1.982, "ClpP1P2": -39.23}
{"structure": "COCC1CN(C(=O)Cc2cccc(F)c2)Cc2ccnn2C1", "stereo": "stereo not drawn", "PfKRS1": 0.4876, "ClpP1P2": 9.788}
{"structure": "CN(C)c1cc(C(=O)N2CCCCC2Cn2cccn2)ccn1", "stereo": "stereo not drawn", "PfKRS1": -1.585, "ClpP1P2": -34.04}
{"structure": "CC(C)N(CC(N)=O)C(=O)c1cc(F)ccc1N1CCN(C)CC1", "PfKRS1": -0.9695, "ClpP1P2": -6.305}
{"structure": "CCCC(=O)N(CCN1CCOCC1)c1nc2c(OC)ccc(C)c2s1", "PfKRS1": 2.478, "ClpP1P2": 7.532}
{"structure": "Cc1noc(C)c1C1CCCN1CCC(=O)N1CCc2ccccc2C1", "stereo": "stereo not drawn", "PfKRS1": 3.133, "ClpP1P2": -0.219}
{"structure": "Cc1ccc(CS(=O)(=O)Cc2nc(N)nc(N(C)C)n2)cc1", "PfKRS1": 4.441, "ClpP1P2": 9.264}
{"structure": "Cc1nc(CN(C)CC(c2cccs2)N2CCOCC2)no1", "stereo": "stereo not drawn", "PfKRS1": 1.964, "ClpP1P2": -1.837}
{"structure": "CCc1n[nH]c(C2CN(Cc3nc(C4CC4)no3)CCO2)n1", "stereo": "stereo not drawn", "PfKRS1": 25.59, "ClpP1P2": 2.516}
{"structure": "CN(CC(=O)N1CCN(CC(C)(C)O)CC1)c1ccc(Cl)cn1", "PfKRS1": 2.547, "ClpP1P2": 14.45}
{"structure": "CC(NC(=O)c1cc(-c2cccc(Cl)c2)no1)C(=O)N1CCCC1", "stereo": "stereo not drawn", "PfKRS1": -0.1045, "ClpP1P2": -16.56}
{"structure": "Cn1cnc2c1CCN(Cc1nc(COc3ccc(F)cc3)no1)C2", "PfKRS1": -0.5506, "ClpP1P2": -2.293}
{"structure": "Cc1nn(C)c(C)c1CN(C(=O)c1cc(Cl)c[nH]c1=O)C(C)C", "PfKRS1": 3.628, "ClpP1P2": -11.7}
{"structure": "CCOC1CC2(CCN(CCO)CC2)c2ccc(C)cc21", "stereo": "stereo not drawn", "PfKRS1": 0.1714, "ClpP1P2": 7.004}
{"structure": "COc1cccc(-n2cc(CN(C)C(=O)c3cc[nH]n3)cn2)c1", "PfKRS1": -28.31, "ClpP1P2": -4.126}
{"structure": "O=C(c1cc(C2CC2)[nH]n1)N1CCN(c2nccs2)CC1", "PfKRS1": 5.267, "ClpP1P2": 12.98}
{"structure": "c1ccc(C2CCCN2C2CSCCSC2)nc1", "stereo": "stereo not drawn", "PfKRS1": 3.225, "ClpP1P2": 2.709}
{"structure": "COc1cc(Oc2ncccc2C(F)(F)F)ccc1CN1CCCC1", "PfKRS1": 1.259, "ClpP1P2": -21.78}

The first 2 entries again:

* COC(=O)NCC(=O)NC1CC(C)(C)Cc2oc(C)cc21 (stereo not drawn) | PfKRS1: 4.182%; ClpP1P2: 9.13%
* CCOCc1nn(CC2CC2)c2c1CN(Cc1cccs1)CC2 | PfKRS1: 4.954%; ClpP1P2: -18.24%